Source: the supplement of paper PMC4604168 (melanoma cell lines)
This is one part of the list. Single values are uncertain, as repeats are few or missing.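 Cells were imaged in 1,536-well plates, and nuclei stained with an antibody against cleaved PARP were counted against all DNA-stained nuclei to give the apoptosis fraction. Screening doses were chosen to leave most cells alive, and resting and induced cleaved-PARP levels differ strongly between cell lines.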

Legend:
Test in all cases: cleaved PARP positive nuclei fraction relative to DMSO control; melanoma cells; higher = more apoptosis
Settings in all cases: library dose: low library concentration; 72 h
COLO792 = system: COLO792
COLO800 = system: COLO800
COLO829 = system: COLO829
G361 = system: G361
IPC-298 = system: IPC-298
IST-MEL1 = system: IST-MEL1
LB2518-MEL = system: LB2518-MEL
LOXIMVI = system: LOXIMVI

SMILES | cleaved PARP positive nuclei fraction (COLO792) | cleaved PARP positive nuclei fraction (COLO800) | cleaved PARP positive nuclei fraction (COLO829) | cleaved PARP positive nuclei fraction (G361) | cleaved PARP positive nuclei fraction (IPC-298) | cleaved PARP positive nuclei fraction (IST-MEL1) | cleaved PARP positive nuclei fraction (LB2518-MEL) | cleaved PARP positive nuclei fraction (LOXIMVI)
C[C@]12O[C@H](C[C@]1(O)CO)n1c3ccccc3c3c4c(c5c6ccccc6n2c5c31)CNC4=O [Lestaurtinib] + O=c1cc(-c2cccc3c2Sc2ccccc2S3)oc(N2CCOCC2)c1 [KU55933] (first compound 0.004 µM, partner dose 1 µM) | 92.3% | 34.4% | 62.4% | 111% | 50.1% | 74.7% | 81.1% | 114%
CC1(C)CCC(c2ccc(Cl)cc2)=C(CN2CCN(c3ccc(C(=O)NS(=O)(=O)c4ccc(N[C@H](CCN5CCOCC5)CSc5ccccc5)c(S(=O)(=O)C(F)(F)F)c4)cc3)CC2)C1 + C/C(O)=C(\C#N)C(=O)Nc1cc(Br)ccc1Br [LFM-A13] (first compound 0.4 µM, partner dose 2 µM) | 263% | 140% | 74.3% | 133% | 127% | 80.8% | 159% | 130%
Cc1cn(-c2cc(NC(=O)c3ccc(C)c(Nc4nccc(-c5cccnc5)n4)c3)cc(C(F)(F)F)c2)cn1 [nilotinib] + C/C(O)=C(\C#N)C(=O)Nc1cc(Br)ccc1Br [LFM-A13] (first compound 0.2 µM, partner dose 2 µM) | 69.8% | 81% | 24.5% | 81% | 37.7% | 68.4% | 71.5% | 279%
C[C@]12O[C@H](C[C@]1(O)CO)n1c3ccccc3c3c4c(c5c6ccccc6n2c5c31)CNC4=O [Lestaurtinib] + COc1ccc2c(c1)CCC1C2CCC2(C)C(NCCCCCCN3C(=O)C=CC3=O)CCC12 [U73122] (first compound 0.004 µM, partner dose 0.4 µM) | 113% | 118% | 113% | 158% | 180% | 57.5% | 32.2% | 89.3%
O=c1[nH]nc(Sc2ncc([N+](=O)[O-])s2)n1-c1ccc2c(c1)OCCO2 + C/C(O)=C(\C#N)C(=O)Nc1cc(Br)ccc1Br [LFM-A13] (first compound 0.2 µM, partner dose 2 µM) | 117% | 64.4% | 139% | 93.1% | 110% | 243% | 65.8% | 72.5%
C[C@]12O[C@H](C[C@]1(O)CO)n1c3ccccc3c3c4c(c5c6ccccc6n2c5c31)CNC4=O [Lestaurtinib] + O=C(Nc1ccccc1)c1cc([N+](=O)[O-])ccc1Cl [GW9662] (first compound 0.004 µM, partner dose 2 µM) | 76.7% | 190% | 85.2% | 136% | 241% | 93.4% | 156% | 111%
CC(=O)c1c(C)c2cnc(Nc3ccc(N4CCNCC4)cn3)nc2n(C2CCCC2)c1=O [palbociclib] + Cc1cc(SCc2sc(-c3ccc(C(F)(F)F)c(F)c3)nc2C)ccc1OCC(=O)O [GW0742] (first compound 0.04 µM, partner dose 2 µM) | 106% | 168% | 70.4% | 83.4% | 104% | 143% | 94.8% | 18%
CCN(CC)CCNC(=O)c1c(C)[nH]c(/C=C2\C(=O)Nc3ccc(F)cc32)c1C [sunitinib] + C/C(O)=C(\C#N)C(=O)Nc1cc(Br)ccc1Br [LFM-A13] (first compound 0.4 µM, partner dose 2 µM) | 113% | 92% | 21.9% | 108% | 176% | 122% | 97.6% | 207%
CC(=O)O[C@@]12CO[C@@H]1C[C@H](O)[C@@]1(C)C(=O)[C@H](O)C3=C(C)[C@@H](OC(=O)[C@H](O)[C@@H](NC(=O)OC(C)(C)C)c4ccccc4)C[C@@](O)([C@@H](OC(=O)c4ccccc4)[C@H]21)C3(C)C [Docetaxel] + Cc1cc(SCc2sc(-c3ccc(C(F)(F)F)c(F)c3)nc2C)ccc1OCC(=O)O [GW0742] (first compound 0.0001 µM, partner dose 2 µM) | 382% | 1010% | 281% | 507% | 143% | 45.4% | 311% | 145%
N.N.[Cl][Pt][Cl] [cisplatin] + C/C(O)=C(\C#N)C(=O)Nc1cc(Br)ccc1Br [LFM-A13] (first compound 1.6 µM, partner dose 2 µM) | 46.6% | 113% | 83.5% | 76.8% | 142% | 46.7% | 146% | 135%
C[C@@H](N)c1ccc(C(=O)Nc2ccnc3[nH]ccc23)cc1 + O=C(Oc1ccc([N+](=O)[O-])cc1)N1CCC(C(O)(c2ccc3c(c2)OCO3)c2ccc3c(c2)OCO3)CC1 [JZL184] (first compound 0.4 µM, partner dose 1 µM) | 158% | 90.6% | 31% | 216% | 45% | 362% | 140% | 141%
Cn1cc(C2=C(c3cn(C4CCN(Cc5ccccn5)CC4)c4ccccc34)C(=O)NC2=O)c2ccccc21 [Enzastaurin] + COc1cc2ncnc(Nc3ccc(Oc4ccccc4)cc3)c2cc1OC [SrcI1] (first compound 0.8 µM, partner dose 2 µM) | 29.5% | 83.8% | 34.9% | 102% | 36.1% | 65.3% | 56.4% | 359%
N#CC[C@H](C1CCCC1)n1cc(-c2ncnc3[nH]ccc23)cn1 [ruxolitinib] + C/C(O)=C(\C#N)C(=O)Nc1cc(Br)ccc1Br [LFM-A13] (first compound 1 µM, partner dose 2 µM) | 130% | 171% | 90% | 75.7% | 39.5% | 128% | 25.8% | 104%
CCCCCCCCc1ccc(CCC(N)(CO)CO)cc1 [fingolimod] + C/C(O)=C(\C#N)C(=O)Nc1cc(Br)ccc1Br [LFM-A13] (first compound 2 µM, partner dose 2 µM) | 80.5% | 335% | 153% | 144% | 63% | 76.7% | 49.2% | 121%
CCCCCCCCc1ccc(CCC(N)(CO)CO)cc1 [fingolimod] + Cc1cc(SCc2sc(-c3ccc(C(F)(F)F)c(F)c3)nc2C)ccc1OCC(=O)O [GW0742] (first compound 2 µM, partner dose 2 µM) | 45% | 62.8% | 64.9% | 109% | 95.6% | 62% | 34% | 25.4%
C[C@]12O[C@H](C[C@]1(O)CO)n1c3ccccc3c3c4c(c5c6ccccc6n2c5c31)CNC4=O [Lestaurtinib] + O=C1NC(=O)/C(=C/c2ccc(-c3ccc(F)cc3O)o2)S1 [AS252424] (first compound 0.004 µM, partner dose 1 µM) | 91.5% | 153% | 26.2% | 150% | 62.6% | 178% | 73% | 153%
Cn1cc(C2=C(c3cn(C4CCN(Cc5ccccn5)CC4)c4ccccc34)C(=O)NC2=O)c2ccccc21 [Enzastaurin] + COc1cc(N2CCC(N3CCN(C)CC3)CC2)ccc1Nc1ncc(Cl)c(Nc2ccccc2S(=O)(=O)C(C)C)n1 [NVP-TAE684] (first compound 0.8 µM, partner dose 0.08 µM) | 151% | 169% | 156% | 229% | 72.6% | 89.8% | 64.6% | 193%
C[C@]12O[C@H](C[C@]1(O)CO)n1c3ccccc3c3c4c(c5c6ccccc6n2c5c31)CNC4=O [Lestaurtinib] + Cc1cc(SCc2sc(-c3ccc(C(F)(F)F)c(F)c3)nc2C)ccc1OCC(=O)O [GW0742] (first compound 0.004 µM, partner dose 2 µM) | 148% | 62.5% | 80.3% | 141% | 31.7% | 120% | 158% | 146%
CCN(CC)CCNC(=O)c1c(C)[nH]c(/C=C2\C(=O)Nc3ccc(F)cc32)c1C [sunitinib] + Cc1cc(SCc2sc(-c3ccc(C(F)(F)F)c(F)c3)nc2C)ccc1OCC(=O)O [GW0742] (first compound 0.4 µM, partner dose 2 µM) | 51.3% | 77.5% | 36.4% | 74.6% | 64.2% | 127% | 61.5% | 56.2%
N#CC[C@H](C1CCCC1)n1cc(-c2ncnc3[nH]ccc23)cn1 [ruxolitinib] + Cc1cc(SCc2sc(-c3ccc(C(F)(F)F)c(F)c3)nc2C)ccc1OCC(=O)O [GW0742] (first compound 1 µM, partner dose 2 µM) | 107% | 40% | 43.1% | 89% | 73.4% | 91.5% | 63.6% | 133%
Clc1ccc(Nc2nnc(Cc3ccncc3)c3ccccc23)cc1 [vatalanib] + O=C(Oc1ccc([N+](=O)[O-])cc1)N1CCC(C(O)(c2ccc3c(c2)OCO3)c2ccc3c(c2)OCO3)CC1 [JZL184] (first compound 2 µM, partner dose 1 µM) | 110% | 124% | 74.8% | 117% | 94.7% | 47.6% | 78.5% | 72.7%
COc1ccc(C2=N[C@@H](c3ccc(Cl)cc3)[C@@H](c3ccc(Cl)cc3)N2C(=O)N2CCNC(=O)C2)c(OC(C)C)c1 [Nutlin-3] + O=C(Oc1ccc([N+](=O)[O-])cc1)N1CCC(C(O)(c2ccc3c(c2)OCO3)c2ccc3c(c2)OCO3)CC1 [JZL184] (first compound 0.1 µM, partner dose 1 µM) | 115% | 85.3% | 171% | 65.1% | 160% | 95.7% | 70.4% | 37.5%
N.N.[Cl][Pt][Cl] [cisplatin] + O=C(O)C(=O)Nc1sc2c(c1C(=O)O)CCNC2 [TCS401] (first compound 1.6 µM, partner dose 1.66667 µM) | 76% | 64.5% | 107% | 274% | 34% | 49% | 42.4% | 106%

Some of the entries so far, as a markdown table.

| SMILES | cleaved PARP positive nuclei fraction (COLO792) | cleaved PARP positive nuclei fraction (COLO800) | cleaved PARP positive nuclei fraction (COLO829) | cleaved PARP positive nuclei fraction (G361) | cleaved PARP positive nuclei fraction (IPC-298) | cleaved PARP positive nuclei fraction (IST-MEL1) | cleaved PARP positive nuclei fraction (LB2518-MEL) | cleaved PARP positive nuclei fraction (LOXIMVI) |
| --- | --- | --- | --- | --- | --- | --- | --- | --- |
| N.N.[Cl][Pt][Cl] [cisplatin] + C/C(O)=C(\C#N)C(=O)Nc1cc(Br)ccc1Br [LFM-A13] (first compound 1.6 µM, partner dose 2 µM) | 46.6% | 113% | 83.5% | 76.8% | 142% | 46.7% | 146% | 135% |
| C[C@@H](N)c1ccc(C(=O)Nc2ccnc3[nH]ccc23)cc1 + O=C(Oc1ccc([N+](=O)[O-])cc1)N1CCC(C(O)(c2ccc3c(c2)OCO3)c2ccc3c(c2)OCO3)CC1 [JZL184] (first compound 0.4 µM, partner dose 1 µM) | 158% | 90.6% | 31% | 216% | 45% | 362% | 140% | 141% |
